One data set deals with BRCA1 (human) (UniProt P38398). In words: EMSA. The note with it: 1 mM EDTA, no added divalent metal. (In general: In EMSA bound probe runs differently from free probe, usually more slowly.)
Another data set has as its system BRCA1 + BARD1. The data set can be described thus: EMSA. The note with it: 1 mM EDTA, no added divalent metal.

Amino acid sequences for entries named in this document (tags omitted). A change or cut given only in a name is not applied to a line headed by its entry.
UniProt P38398: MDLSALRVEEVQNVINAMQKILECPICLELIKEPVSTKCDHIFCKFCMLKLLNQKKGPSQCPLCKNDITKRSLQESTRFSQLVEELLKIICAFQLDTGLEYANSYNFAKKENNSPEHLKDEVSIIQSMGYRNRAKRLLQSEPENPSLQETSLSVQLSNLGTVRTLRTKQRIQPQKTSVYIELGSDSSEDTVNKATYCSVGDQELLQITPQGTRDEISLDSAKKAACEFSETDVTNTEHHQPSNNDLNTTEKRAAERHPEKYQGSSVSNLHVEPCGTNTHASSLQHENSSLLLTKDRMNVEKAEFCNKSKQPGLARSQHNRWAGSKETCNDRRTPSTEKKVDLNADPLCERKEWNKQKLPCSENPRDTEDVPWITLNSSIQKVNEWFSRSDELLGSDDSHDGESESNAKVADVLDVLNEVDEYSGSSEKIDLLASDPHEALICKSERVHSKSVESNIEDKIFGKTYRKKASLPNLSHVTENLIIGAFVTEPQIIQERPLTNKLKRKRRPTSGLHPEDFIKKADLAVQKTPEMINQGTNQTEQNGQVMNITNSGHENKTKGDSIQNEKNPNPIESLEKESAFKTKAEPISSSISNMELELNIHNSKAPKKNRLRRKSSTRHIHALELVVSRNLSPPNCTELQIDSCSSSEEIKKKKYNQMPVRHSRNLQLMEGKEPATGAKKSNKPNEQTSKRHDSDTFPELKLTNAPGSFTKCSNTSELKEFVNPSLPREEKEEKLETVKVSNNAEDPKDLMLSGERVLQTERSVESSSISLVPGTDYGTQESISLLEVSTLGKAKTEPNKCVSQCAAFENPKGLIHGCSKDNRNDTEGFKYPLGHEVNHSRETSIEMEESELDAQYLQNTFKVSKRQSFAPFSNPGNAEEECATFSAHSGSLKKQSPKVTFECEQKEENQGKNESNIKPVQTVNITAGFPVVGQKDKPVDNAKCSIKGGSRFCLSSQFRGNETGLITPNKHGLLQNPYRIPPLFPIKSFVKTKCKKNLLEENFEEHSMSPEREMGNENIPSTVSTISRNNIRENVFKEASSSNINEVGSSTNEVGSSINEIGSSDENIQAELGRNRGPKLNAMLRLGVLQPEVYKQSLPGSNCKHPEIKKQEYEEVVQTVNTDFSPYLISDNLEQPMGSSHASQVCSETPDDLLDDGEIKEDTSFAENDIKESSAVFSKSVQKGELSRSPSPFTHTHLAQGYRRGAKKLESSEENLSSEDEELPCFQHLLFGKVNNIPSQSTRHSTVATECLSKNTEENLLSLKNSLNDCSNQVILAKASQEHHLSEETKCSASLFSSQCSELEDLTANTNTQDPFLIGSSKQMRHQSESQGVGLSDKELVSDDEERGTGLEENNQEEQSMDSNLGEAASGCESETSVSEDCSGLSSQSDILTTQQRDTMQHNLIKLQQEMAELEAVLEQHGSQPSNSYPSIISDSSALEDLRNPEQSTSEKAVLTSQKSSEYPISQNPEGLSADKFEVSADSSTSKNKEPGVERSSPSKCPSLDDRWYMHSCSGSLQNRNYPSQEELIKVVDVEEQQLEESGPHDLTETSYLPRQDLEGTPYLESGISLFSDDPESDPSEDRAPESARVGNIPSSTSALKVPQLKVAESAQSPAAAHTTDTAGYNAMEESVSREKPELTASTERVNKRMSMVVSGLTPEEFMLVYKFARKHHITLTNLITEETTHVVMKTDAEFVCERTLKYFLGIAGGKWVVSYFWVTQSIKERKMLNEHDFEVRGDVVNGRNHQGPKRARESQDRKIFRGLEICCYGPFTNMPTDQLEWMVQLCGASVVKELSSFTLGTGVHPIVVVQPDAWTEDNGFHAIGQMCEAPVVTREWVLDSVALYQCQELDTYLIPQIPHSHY

For at least one entry, the source does not settle the construct or the ends of the probe. At least one verdict was read from the data and is not stated in words by the source.

As for “GACGTCATAGACGATTACATTGCTAGGACATGCTGTCTAGAGACTATCGC (double strand) [50 bp dsDNA X12-3/X12-4C]”, the binding result with BRCA1 (human) and with BRCA1 + BARD1 was “binds” throughout.

The record behind these values is doi:10.1101/255976.
